Construct, isoform or probe ends are uncertain for at least one entry. For some of these results: Where a protein sequence is shown, tags need not be part of it.
Columns and labels:
[1] = tested on: Nb.BbvCI nicking endonuclease; test: enzyme reaction in vitro; details: before position 1], purified recombinant protein, protein details: New England Biolabs, letters built from the parent sequence and the stated change
[2] = target: T1, Exonuclease III (Exo III) (UniProt P09030); test: enzyme reaction in vitro; details: before position 1], purified recombinant protein, protein details: New England Biolabs, letters built from the parent sequence and the stated change
T1 sequence (looked up, limits assumed): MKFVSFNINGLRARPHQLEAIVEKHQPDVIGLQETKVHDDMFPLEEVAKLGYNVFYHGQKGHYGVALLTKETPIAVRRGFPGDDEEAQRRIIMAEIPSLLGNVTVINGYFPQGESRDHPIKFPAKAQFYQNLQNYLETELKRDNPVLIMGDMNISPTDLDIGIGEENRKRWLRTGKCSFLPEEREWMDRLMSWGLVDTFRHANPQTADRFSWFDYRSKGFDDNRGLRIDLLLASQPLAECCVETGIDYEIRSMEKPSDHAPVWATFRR

CCTCCGCAATACTCCGCTGAGGCCTGGGGGAGTATTGCGGAGGAAGGCCTCAGC [ATP-aptamer hairpin (12)]
activity on this sequence ([1]; 5' SH(CH2)6, immobilised on mesoporous SiO2 [5' end: SH(CH2)6 linker (printed N, left out), ATP-triggered opening of hairpin, rhodamine B release, NEBuffer 2, 90 min, folded or branched DNA): active

CCTCCGCTACCTGGGGGAGTATTGCGGAGGAAGGTA [ATP-aptamer hairpin (11)]
activity on this sequence ([2]; 5' SH(CH2)6, immobilised on mesoporous SiO2 [5' end: SH(CH2)6 linker (printed N, left out), ATP-triggered opening of hairpin, rhodamine B release, NEBuffer 1, 90 min, folded or branched DNA): active

AACGAAGCTGAGGATGTGTTCGTT / ATCCTCAGCTTCG [hairpin (6) opened by biomarker DNA (7)]
activity on this sequence ([1]; 5' SH(CH2)6 on hairpin strand, immobilised on mesoporous SiO2 [strand 1 5' end: SH(CH2)6 linker (printed N, left out), nicking read as rhodamine B release, NEBuffer 2, 60 min): active

CAAGGGCAGAAGTCTTCACTGCCCTTGCACACT / AGTGTGCAAGGGCAGTGAAGACTTGATTGT [hairpin (1) opened by biomarker DNA (2)]
activity on this sequence ([2]; 5' SH(CH2)6 on hairpin strand, immobilised on mesoporous SiO2 [strand 1 5' end: SH(CH2)6 linker (printed N, left out), 3'-end digestion read as rhodamine B release, NEBuffer 1, 60 min): active
